Source: article PMC12848948
Construct, isoform or probe ends are uncertain for at least one entry. At least one verdict was read from the data and is not stated in words by the source.

By UniProt entry, the sequences of proteins in these tests, tags left out. Where a name states a change or a piece, a line headed by the entry shows the natural chain unless it says otherwise.
UniProt P43351: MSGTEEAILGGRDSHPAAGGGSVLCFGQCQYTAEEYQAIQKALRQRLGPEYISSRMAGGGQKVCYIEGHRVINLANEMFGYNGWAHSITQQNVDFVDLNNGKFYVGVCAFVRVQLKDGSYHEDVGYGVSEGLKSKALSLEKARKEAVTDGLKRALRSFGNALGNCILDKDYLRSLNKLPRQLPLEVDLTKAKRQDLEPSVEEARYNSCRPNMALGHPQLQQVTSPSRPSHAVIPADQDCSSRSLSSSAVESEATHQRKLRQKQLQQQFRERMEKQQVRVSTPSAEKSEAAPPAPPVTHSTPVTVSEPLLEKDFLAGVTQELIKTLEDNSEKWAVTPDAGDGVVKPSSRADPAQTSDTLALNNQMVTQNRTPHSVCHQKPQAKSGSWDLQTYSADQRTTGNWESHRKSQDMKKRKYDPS

Tests used:
RAD51 + RAD52 = experiment: fluorescence microscopy (fibril formation); conditions: 15 mM NaCl, RAD51 fibrils: 25 mM Tris-HCl pH 7.5, 100 mM salt (text truncated), recombinant protein, protein details: 6xHis, single-stranded DNA
RAD52 (human) = RAD52 (human) (UniProt P43351); experiment: fluorescence microscopy (recruitment to condensates); conditions: 2.5 uM RAD52, 15 mM NaCl, variable ssDNA ratio, RAD51 fibrils: 25 mM Tris-HCl pH 7.5, 100 mM salt (text truncated), recombinant protein, protein details: 6xHis, label: Cy3 in RAD52-ssDNA mixtures, single-stranded DNA

Row | Sequence | binding result (RAD51 + RAD52; 5 uM RAD51, 5 uM RAD52, 2.5 uM dT40, no crowder, label: Cy3 in RAD52-ssDNA mixtures) | binding result (RAD52 (human)) | binding result (RAD51 + RAD52; 5 uM RAD51, 5 uM RAD52, 2.5 uM T30, 25 mM Tris-HCl pH 7.5)
1 | TTTTTTTTTTTTTTTTTTTTTTTTTTTTTTTTTTTTTTTT [dT40] | binds | binds | –
2 | TTTTTTTTTTTTTTTTTTTTTTTTTTTTTT [T30] | – | – | binds
